For experiment [1], the target named is integrin β8 on β8 expressing 293 cells (human) (UniProt P26012). Put plainly: staining of β8 expressing 293 cells (FIG. 2A).
The target in experiment [2] is clasped αvβ8 (human) (UniProt P06756). Kind of experiment: size-exclusion purified complex, negative-stain EM.
The target in experiment [3] is unclasped αvβ8 (human) (UniProt P06756). Kind of experiment: size-exclusion purified complex, negative-stain EM. (Size exclusion chromatography separates by hydrodynamic size, large species first.)

Protein sequences, listed by entry. Tags and fused reporters are not part of them. Lines headed by an entry give the natural chain unless they say otherwise; changes in a name come on top.
UniProt P26012: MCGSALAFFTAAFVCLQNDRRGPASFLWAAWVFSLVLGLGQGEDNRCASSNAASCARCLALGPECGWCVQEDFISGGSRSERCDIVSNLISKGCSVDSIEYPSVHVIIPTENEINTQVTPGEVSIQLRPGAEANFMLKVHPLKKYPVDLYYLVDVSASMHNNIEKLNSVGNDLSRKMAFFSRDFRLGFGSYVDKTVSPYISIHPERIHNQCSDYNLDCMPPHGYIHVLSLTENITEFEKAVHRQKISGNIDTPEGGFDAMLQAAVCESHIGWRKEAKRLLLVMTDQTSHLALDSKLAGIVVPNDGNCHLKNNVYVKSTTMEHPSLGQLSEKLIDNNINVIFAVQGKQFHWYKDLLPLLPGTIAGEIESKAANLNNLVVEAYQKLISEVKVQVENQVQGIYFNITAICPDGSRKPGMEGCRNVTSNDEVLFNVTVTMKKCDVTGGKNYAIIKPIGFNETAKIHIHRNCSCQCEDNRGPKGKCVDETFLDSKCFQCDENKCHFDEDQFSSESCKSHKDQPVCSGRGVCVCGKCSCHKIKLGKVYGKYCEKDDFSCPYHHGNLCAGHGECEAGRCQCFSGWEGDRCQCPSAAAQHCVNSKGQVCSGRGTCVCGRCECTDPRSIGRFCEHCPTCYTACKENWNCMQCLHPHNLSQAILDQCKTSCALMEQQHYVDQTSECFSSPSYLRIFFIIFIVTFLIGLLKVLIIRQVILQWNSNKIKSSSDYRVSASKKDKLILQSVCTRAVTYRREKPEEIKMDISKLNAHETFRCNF
UniProt P06756: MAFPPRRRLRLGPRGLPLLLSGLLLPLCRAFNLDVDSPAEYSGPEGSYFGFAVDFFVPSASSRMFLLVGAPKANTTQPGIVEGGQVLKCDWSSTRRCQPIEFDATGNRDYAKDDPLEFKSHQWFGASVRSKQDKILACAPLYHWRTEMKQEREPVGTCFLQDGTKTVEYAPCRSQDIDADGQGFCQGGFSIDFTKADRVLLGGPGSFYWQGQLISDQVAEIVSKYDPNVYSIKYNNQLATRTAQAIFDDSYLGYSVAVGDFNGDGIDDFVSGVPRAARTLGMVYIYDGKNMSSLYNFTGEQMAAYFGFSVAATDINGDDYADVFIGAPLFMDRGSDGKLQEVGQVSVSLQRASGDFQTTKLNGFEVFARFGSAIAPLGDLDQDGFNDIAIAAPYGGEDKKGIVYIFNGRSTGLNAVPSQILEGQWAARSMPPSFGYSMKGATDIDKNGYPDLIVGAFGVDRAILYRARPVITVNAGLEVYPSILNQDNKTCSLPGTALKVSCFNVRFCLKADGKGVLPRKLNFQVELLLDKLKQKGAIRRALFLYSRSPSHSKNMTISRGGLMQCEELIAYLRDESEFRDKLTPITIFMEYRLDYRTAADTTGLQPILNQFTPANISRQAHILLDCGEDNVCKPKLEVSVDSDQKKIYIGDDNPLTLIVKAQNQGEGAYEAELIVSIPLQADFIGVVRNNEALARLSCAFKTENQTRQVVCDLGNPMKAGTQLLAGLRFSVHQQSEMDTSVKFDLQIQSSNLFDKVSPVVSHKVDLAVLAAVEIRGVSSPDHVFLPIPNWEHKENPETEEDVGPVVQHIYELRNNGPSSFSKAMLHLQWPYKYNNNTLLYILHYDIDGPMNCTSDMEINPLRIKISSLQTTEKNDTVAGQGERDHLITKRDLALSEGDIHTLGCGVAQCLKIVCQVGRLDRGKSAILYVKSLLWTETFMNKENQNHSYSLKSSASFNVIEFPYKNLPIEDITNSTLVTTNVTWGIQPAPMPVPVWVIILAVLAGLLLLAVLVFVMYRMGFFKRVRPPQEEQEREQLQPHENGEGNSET

These are yes or no findings as the source states them, for the method shown. Some results given as binding are weak or reduced against the parent protein; the word gives no strength.

B1: 37E1B5 antibody (antibody, V domains shown)
VH: EVQLVESGGGLVQPGGSLNLSCAVSGFVFSRYWMSWVRQAPGKGLEWIGEINPDSSTINYTSSLKDKFIISRDNAKNTLYLQMNKVRSEDTALYYCACLITTEDYWGQGTSVTVSS
VL: QIVLTQSPSSMYASLGERVTIPCKASQDINSYLSWFQQKPGKSPKTLIYYANRLVDGVPSRFSGSGSGQDYSLTISSLEYEDMGIYYCLQYDEFPYTFGGGTKLEIKA
modifications: glycan in heavy chain CDR2 (SEQ ID NO:7)
In the case of B1, the binding entry in experiment [1] is recorded as “binds”.

B2: 37E1B5 Fab (Fab, V domains shown)
VH: B1 VH
VL: B1 VL
modifications: heavy chain CDR2 glycosylation
B2: the binding entry in experiment [2] and in experiment [3] was “binds” throughout.
